{
  "source": "patent US20050148069A1",
  "about": "“IGF-1 instructs multipotent adult CNS neural stem cells to an oligodendroglial lineage” (priority 2003, published 2005)",
  "system": "adult hippocampus-derived neural progenitor cells",
  "assay": "in vitro differentiation analysis of neural progenitor cells (immunocytochemistry for lineage markers)",
  "format": "cell-based, rat",
  "conditions": "each at 500 ng/ml, 4 days",
  "experimental": "The neural progenitor cells isolated from the hippocampus of female Fischer 344 used in this study have been characterized previously (Gage et al., 1995; Palmer et al., 1997). The whole brain-derived neural stem cells from PIO ICR mice were isolated and cultured according to the methods as described, with slight modifications. Cells were cultured as previously described (Gage et al., 1995; Ray et al., 1993). Cells between passages 10 and 20 were used for in vitro differentiation analyses. To induce differentiation, cells were plated into 4-well chamber slides at a density of 55,000-75,000 cells per well and were allowed to proliferate in N2-supplemented (Invitrogen) DMEM:F12 (Omega Scientific) medium containing 20 ng/ml FGF-2 (PeproTech, Inc.) for 24 hours. […]\nCells were fixed with 4% paraformaldehyde, followed by immunocytochemical staining as described (Palmer et al., 1999). […] Quantification of cell phenotypes was with StereoInvestigator (MicroBrightfield Inc.); for each marker, 500-1000 cells were sampled systematically from standardized fields at 40×magnification. For quantification of live/dead cells, images were taken of cultures live-stained with propidum iodide (1 μg/ml; Molecular Probes) and Hoescht 33342 (1 μg/ml; Sigma) at 10×magnification, and cells were counted using Image-Pro (Media Cybernetics). […]",
  "note": "Some of these results come from one statement about several compounds together.",
  "data": [
    {"substance": "IGF-II: human recombinant IGF-II (R&D Systems)", "values": [
      {"measurement": "neural progenitor cells differentiated into Tuj1+ neurons", "value": "5-15%"}
    ]}
  ]
}
